PubChem BioAssay AID1224830 | NIAID | 2016
Here is a random part of about 18,000 deposited reagents. About 2,900 of all reagents (16%) were called active. 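Calls are made per well; low scores hint the gene aids the LPS response, high scores that it dampens it.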 Repeated entries: four replicate wells of each siRNA pool.

Aim: 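Regulators of TLR4 signalling towards TNF-alpha in macrophage-like cells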 (primary screen)
Cells: human THP-1 monocytic leukaemia cells, TNF dual-luciferase reporter clone, PMA-differentiated to macrophage-like cells
Knock-down reagent: siRNA pool against human genes, 50 nM
Timing: LPS for 4 h, given about 3 days after siRNA transfection
Treatment: bacterial LPS (TLR4 ligand), 10 ng/ml
Measured: 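Ratio of firefly to renilla light, scaled to the plate median and expressed as a robust z-score per replicate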
Scale: TNF reporter robust z-score: higher = stronger TNF reporter response to LPS
Active means: 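a well is active when its z-score exceeds 2.8 or falls below -1.5; control wells carry no call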

| gene | TNF reporter robust z-score | outcome |
| --- | --- | --- |
| SPECC1 | -0.66 | inactive |
| SPECC1 | -0.92 | inactive |
| SPECC1 | 0.16 | inactive |
| SPECC1 | -0.41 | inactive |
| PRAMEF16 (retired record) | -2.19 | active |
| PRAMEF16 (retired record) | -0.61 | inactive |
| PRAMEF16 (retired record) | -0.29 | inactive |
| PRAMEF16 (retired record) | -0.16 | inactive |
| TOMM20L (translocase of outer mitochondrial membrane 20 like) | -0.85 | inactive |
| TOMM20L (translocase of outer mitochondrial membrane 20 like) | -1.35 | inactive |
| TOMM20L (translocase of outer mitochondrial membrane 20 like) | 2.72 | inactive |
| TOMM20L (translocase of outer mitochondrial membrane 20 like) | -0.61 | inactive |
| LINC02870 (long independently transcribed non-coding RNA 2870) | -1.05 | inactive |
| LINC02870 (long independently transcribed non-coding RNA 2870) | -0.77 | inactive |
| LINC02870 (long independently transcribed non-coding RNA 2870) | -0.95 | inactive |
| LINC02870 (long independently transcribed non-coding RNA 2870) | -1.16 | inactive |
| SKAP2 (src kinase associated phosphoprotein 2) | -0.19 | inactive |
| SKAP2 (src kinase associated phosphoprotein 2) | -0.03 | inactive |
| SKAP2 (src kinase associated phosphoprotein 2) | 0.41 | inactive |
| SKAP2 (src kinase associated phosphoprotein 2) | -0.41 | inactive |
| RPP14 (ribonuclease P/MRP subunit p14) | -0.07 | inactive |
| RPP14 (ribonuclease P/MRP subunit p14) | 0 | inactive |
| RPP14 (ribonuclease P/MRP subunit p14) | 0.21 | inactive |
| RPP14 (ribonuclease P/MRP subunit p14) | 0.55 | inactive |
| C19orf33 (chromosome 19 open reading frame 33) | -0.84 | inactive |
| C19orf33 (chromosome 19 open reading frame 33) | -0.74 | inactive |
| C19orf33 (chromosome 19 open reading frame 33) | -1 | inactive |
| C19orf33 (chromosome 19 open reading frame 33) | 0.04 | inactive |
| CD274 (CD274 molecule) | -0.38 | inactive |
| CD274 (CD274 molecule) | 0.3 | inactive |
| CD274 (CD274 molecule) | 1.94 | inactive |
| CD274 (CD274 molecule) | 6.27 | active |
| SVOP (SV2 related protein) | -0.28 | inactive |
| SVOP (SV2 related protein) | 0.79 | inactive |
| SVOP (SV2 related protein) | 1.64 | inactive |
| SVOP (SV2 related protein) | -0.38 | inactive |
| TOP6BL (TOP6B like initiator of meiotic double strand breaks) | 0.05 | inactive |
| TOP6BL (TOP6B like initiator of meiotic double strand breaks) | -0.01 | inactive |
| TOP6BL (TOP6B like initiator of meiotic double strand breaks) | 0.09 | inactive |
| TOP6BL (TOP6B like initiator of meiotic double strand breaks) | 0.47 | inactive |
| ZFP69B (ZFP69 zinc finger protein B) | -1.14 | inactive |
| ZFP69B (ZFP69 zinc finger protein B) | -0.82 | inactive |
| ZFP69B (ZFP69 zinc finger protein B) | -1.02 | inactive |
| ZFP69B (ZFP69 zinc finger protein B) | -1.07 | inactive |
| STAG3L1 (STAG3 cohesin complex component like 1 (pseudogene)) | 1.88 | inactive |
| STAG3L1 (STAG3 cohesin complex component like 1 (pseudogene)) | -0.56 | inactive |
| STAG3L1 (STAG3 cohesin complex component like 1 (pseudogene)) | -0.77 | inactive |
| STAG3L1 (STAG3 cohesin complex component like 1 (pseudogene)) | 0.29 | inactive |
| SELENOI (selenoprotein I) | 0 | inactive |
| SELENOI (selenoprotein I) | 0.43 | inactive |
| SELENOI (selenoprotein I) | 0.44 | inactive |
| SELENOI (selenoprotein I) | 0.85 | inactive |
| HDC (histidine decarboxylase) | -1.15 | inactive |
| HDC (histidine decarboxylase) | 0.05 | inactive |
| HDC (histidine decarboxylase) | 0.09 | inactive |
| HDC (histidine decarboxylase) | -0.18 | inactive |
| GOLGA1 (golgin A1) | 3.4 | active |
| GOLGA1 (golgin A1) | 0.56 | inactive |
| GOLGA1 (golgin A1) | -1.08 | inactive |
| GOLGA1 (golgin A1) | 0.9 | inactive |
| GTF3C3 (general transcription factor IIIC subunit 3) | 0.47 | inactive |
| GTF3C3 (general transcription factor IIIC subunit 3) | 0.61 | inactive |
| GTF3C3 (general transcription factor IIIC subunit 3) | -0.08 | inactive |
| GTF3C3 (general transcription factor IIIC subunit 3) | -1.16 | inactive |
| MS4A7 (membrane spanning 4-domains A7) | -0.01 | inactive |
| MS4A7 (membrane spanning 4-domains A7) | 0.3 | inactive |
| MS4A7 (membrane spanning 4-domains A7) | 0.93 | inactive |
| MS4A7 (membrane spanning 4-domains A7) | 0.89 | inactive |
| RPS3A (ribosomal protein S3A) | 0.29 | inactive |
| RPS3A (ribosomal protein S3A) | -0.72 | inactive |
| RPS3A (ribosomal protein S3A) | 0.43 | inactive |
| RPS3A (ribosomal protein S3A) | 1.11 | inactive |
| GJD3 (gap junction protein delta 3) | -1.53 | active |
| GJD3 (gap junction protein delta 3) | -0.81 | inactive |
| GJD3 (gap junction protein delta 3) | -1.57 | active |
| GJD3 (gap junction protein delta 3) | -0.7 | inactive |
| SOX4 (SRY-box transcription factor 4) | – | inactive |
| SOX4 (SRY-box transcription factor 4) | 1.21 | inactive |
| SOX4 (SRY-box transcription factor 4) | 0.75 | inactive |
| SOX4 (SRY-box transcription factor 4) | 2.16 | inactive |
| SOX4 (SRY-box transcription factor 4) | 0.46 | inactive |
| TUBB (tubulin beta class I) | 0.02 | inactive |
| TUBB (tubulin beta class I) | 0.39 | inactive |
| TUBB (tubulin beta class I) | 0.37 | inactive |
| TUBB (tubulin beta class I) | 0.25 | inactive |
| WDR36 (WD repeat domain 36) | -1.24 | inactive |
| WDR36 (WD repeat domain 36) | -0.87 | inactive |
| WDR36 (WD repeat domain 36) | 1.52 | inactive |
| WDR36 (WD repeat domain 36) | 0.58 | inactive |
| OSCP1 | -0.52 | inactive |
| OSCP1 | -0.46 | inactive |
| OSCP1 | -0.04 | inactive |
| OSCP1 | 1.08 | inactive |
| ZNF468 (zinc finger protein 468) | 0.1 | inactive |
| ZNF468 (zinc finger protein 468) | 0.52 | inactive |
| ZNF468 (zinc finger protein 468) | -0.51 | inactive |
| ZNF468 (zinc finger protein 468) | 0.24 | inactive |
| LPIN1 (lipin 1) | 1.99 | inactive |
| LPIN1 (lipin 1) | 0.3 | inactive |
| LPIN1 (lipin 1) | 0.93 | inactive |
| LPIN1 (lipin 1) | 1.6 | inactive |
| ARHGAP25 (Rho GTPase activating protein 25) | 0.21 | inactive |
| ARHGAP25 (Rho GTPase activating protein 25) | -0.34 | inactive |
| ARHGAP25 (Rho GTPase activating protein 25) | -0.85 | inactive |
| ARHGAP25 (Rho GTPase activating protein 25) | -0.31 | inactive |
| SNRPN (small nuclear ribonucleoprotein polypeptide N) | 0.78 | inactive |
| SNRPN (small nuclear ribonucleoprotein polypeptide N) | -0.4 | inactive |
| SNRPN (small nuclear ribonucleoprotein polypeptide N) | 0.67 | inactive |
| SNRPN (small nuclear ribonucleoprotein polypeptide N) | -0.29 | inactive |
| NBPF11 (NBPF member 11) | 1.6 | inactive |
| NBPF11 (NBPF member 11) | 1.43 | inactive |
| NBPF11 (NBPF member 11) | 0.34 | inactive |
| NBPF11 (NBPF member 11) | 1.53 | inactive |
